Structures can show the parent of a compound that is named as a salt. This is one part of the list. Single values are uncertain here, since repeats match poorly.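 Cells: ReNCell VM human fetal ventral-midbrain neural progenitors, differentiated mitogen-free. Blinded raters compared doublecortin-stained (early neurons) or tyrosine hydroxylase-stained (dopaminergic neurons) images with untreated wells, where 0 means no change. After repeats and both raters were averaged, compounds scoring 2 or above became hits for retesting.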

One assay concerns ReNCell VM. Description: neuronal differentiation score (DCX+ cell fraction vs untreated, manual image score) (score (-3 to 3)); higher = more neuronal differentiation. The settings on record: library: Prestwick; 2 uM; 2 weeks.
In the case of `CN1CCC(=C2c3ccccc3Sc3ccccc32)CC1` [Pimethixene maleate], the neuronal differentiation score is inactive: 0.

As for `Cn1c(=O)c2c(ncn2CCO)n(C)c1=O` [Etofylline], the neuronal differentiation score is inactive: 0.

Turning to `Cc1c(C)c2c(c(C)c1O)CCC(C)(C(=O)O)O2` (stereo not drawn) [Trolox], the neuronal differentiation score is inactive: 0.

In the case of `CCCc1cc(=O)[nH]c(=S)[nH]1` [Propylthiouracil], the neuronal differentiation score is inactive: 0.

`CC(=O)OCC(=O)[C@@]1(O)CC[C@H]2[C@@H]3CCC4=CC(=O)CC[C@]4(C)[C@@]3(F)[C@@H](O)C[C@@]21C` [Fludrocortisone acetate]: the neuronal differentiation score is inactive: 0.

The assay is the same for the next values; noted with them: library: Spectrum; 2 uM; 2 weeks.
`Cc1cccc(Nc2ccncc2S(=O)(=O)NC(=O)NC(C)C)c1`: the neuronal differentiation score was inactive: 0.

With `CC(=O)Nc1ccccc1`, the neuronal differentiation score was inactive: 0.

`OCC(O)C(O)C(O)C(O)C(O)CO` (stereo not drawn): the neuronal differentiation score is inactive: 0.

As to `CC[C@H](C)[C@H](N)C(=O)O`, the neuronal differentiation score is inactive: -1.

Regarding `O=C(/C=C/C(=O)Oc1ccccc1C(=O)O)Oc1ccccc1C(=O)O`, the neuronal differentiation score is inactive: 0.

For the compound `COc1c(C)c2c(c(O)c1C/C=C(\C)CCC(=O)OCCN1CCOCC1)C(=O)OC2`, the neuronal differentiation score was inactive: 0.

Regarding `CC(=O)N[C@@H](CS)C(=O)O`, the neuronal differentiation score was inactive: 0.

Regarding `CC(C)[C@@H]1CC[C@@H](C)C[C@H]1O`, the neuronal differentiation score was inactive: 0.

`CC(=O)N(CC(O)CN(C(C)=O)c1c(I)c(C(=O)NCC(O)CO)c(I)c(C(=O)NCC(O)CO)c1I)c1c(I)c(C(=O)NCC(O)CO)c(I)c(C(=O)NCC(O)CO)c1I` (stereo not drawn): the neuronal differentiation score was inactive: 1.

Take `Oc1c(Cl)cc(Cl)cc1Sc1cc(Cl)cc(Cl)c1O`: the neuronal differentiation score was inactive: 0.

For the compound `Cc1ccc(C)c(OCCCC(C)(C)C(=O)O)c1`, the neuronal differentiation score is inactive: 1.

On to `CC(C)=CC1C(CO)C1(C)C` (stereo not drawn), for which the neuronal differentiation score was inactive: 0.

With `Clc1ccccc1C(c1ccccc1)(c1ccccc1)n1ccnc1`, the neuronal differentiation score was inactive: -1.

On to `CCc1cc(Cl)c(OC)c(C(=O)NC[C@@H]2CCCN2CC)c1O`, for which the neuronal differentiation score is inactive: 0.

Regarding `CC(C(=O)O)c1ccc(N2Cc3ccccc3C2=O)cc1` (stereo not drawn), the neuronal differentiation score was inactive: 0.

As to `CC(C)c1ccc2c(c1)CCC1[C@](C)(CN)CCC[C@]21C` (stereo partly drawn), the neuronal differentiation score was inactive: 0.

Consider `COCCCOc1ccnc(C[S+]([O-])c2nc3ccccc3[nH]2)c1C` (stereo not drawn), for which the neuronal differentiation score was inactive: 0.

For `CN(C)[C@@H]1C(O)=C(C(N)=O)C(=O)[C@@]2(O)C(O)=C3C(=O)c4c(O)ccc(Cl)c4[C@@H](O)[C@H]3C[C@@H]12`, the neuronal differentiation score is inactive: 0.

On to `C[C@@H]1CC2C3C[C@H](F)C4=CC(=O)C=C[C@]4(C)[C@@]3(F)[C@@H](O)C[C@]2(C)[C@@]1(O)C(=O)COC(=O)C(C)(C)C` (stereo partly drawn), for which the neuronal differentiation score was inactive: 0.

With `CNC[C@H](O)[C@@H](O)[C@H](O)[C@H](O)CO`, the neuronal differentiation score is inactive: 0.

In the case of `O=C(O)CCCc1ccccc1`, the neuronal differentiation score is inactive: 0.

Take `Cc1ccc(S(=O)(=O)NC(=O)NN2CCCCCC2)cc1`: the neuronal differentiation score is inactive: 0.

For `CC(C)CCCC(C)C1CCC2C3CCC4CC(O)CCC4(C)C3CCC12C` (stereo not drawn) [5alpha-CHOLESTANOL], the neuronal differentiation score is inactive: 0.

Regarding `CCOc1nc2cccc(C(=O)OC(C)OC(=O)OC3CCCCC3)c2n1Cc1ccc(-c2ccccc2-c2nn[nH]n2)cc1` (stereo not drawn), the neuronal differentiation score was inactive: 0.

For the compound `C/C=N/N(C)C=O`, the neuronal differentiation score was inactive: 0.

Regarding `O=c1[nH]c(=O)n([C@H]2C[C@H](O)[C@@H](CO)O2)cc1C(F)(F)F`, the neuronal differentiation score was inactive: 0.

With `Cc1c(NC(=O)c2cccnc2)c(=O)n(-c2ccccc2)n1C`, the neuronal differentiation score was inactive: 0.

`CN(C)CC(c1ccc(O)cc1)C1(O)CCCCC1` (stereo not drawn): the neuronal differentiation score is inactive: -1.

With `NC(=O)CC[C@H](N)C(=O)O`, the neuronal differentiation score is inactive: 0.

A further assay deals with ReNCell VM. Put plainly: dopaminergic neuron differentiation score (TH+ cell fraction vs untreated, manual image score) (score (0 to 3)); higher = more TH+ dopaminergic neuron differentiation. The settings on record: library: Prestwick; 2 uM; 4 weeks; BDNF 10 ng/ml + GDNF 10 ng/ml.
As to `CN1CCC(=C2c3ccccc3Sc3ccccc32)CC1` [Pimethixene maleate], the “dopaminergic neuron differentiation score” value is inactive: 0.

With `Cn1c(=O)c2c(ncn2CCO)n(C)c1=O` [Etofylline], the “dopaminergic neuron differentiation score” value is inactive: 0.

In the case of `Cc1c(C)c2c(c(C)c1O)CCC(C)(C(=O)O)O2` (stereo not drawn) [Trolox], the “dopaminergic neuron differentiation score” value is inactive: 0.

In the case of `CCCc1cc(=O)[nH]c(=S)[nH]1` [Propylthiouracil], the “dopaminergic neuron differentiation score” value was inactive: 0.

Take `CC(=O)OCC(=O)[C@@]1(O)CC[C@H]2[C@@H]3CCC4=CC(=O)CC[C@]4(C)[C@@]3(F)[C@@H](O)C[C@@]21C` [Fludrocortisone acetate]: the “dopaminergic neuron differentiation score” value is inactive: 0.

The assay is the same for the next values; noted with them: library: Spectrum; 2 uM; 4 weeks; BDNF 10 ng/ml + GDNF 10 ng/ml.
For the compound `Cc1cccc(Nc2ccncc2S(=O)(=O)NC(=O)NC(C)C)c1`, the “dopaminergic neuron differentiation score” value is inactive: 0.

`CC(=O)Nc1ccccc1`: the “dopaminergic neuron differentiation score” value was inactive: 0.

Consider `OCC(O)C(O)C(O)C(O)C(O)CO` (stereo not drawn), for which the “dopaminergic neuron differentiation score” value was inactive: 0.

Take `CC[C@H](C)[C@H](N)C(=O)O`: the “dopaminergic neuron differentiation score” value was inactive: 0.

Turning to `O=C(/C=C/C(=O)Oc1ccccc1C(=O)O)Oc1ccccc1C(=O)O`, the “dopaminergic neuron differentiation score” value is inactive: 0.

Take `COc1c(C)c2c(c(O)c1C/C=C(\C)CCC(=O)OCCN1CCOCC1)C(=O)OC2`: the “dopaminergic neuron differentiation score” value was inactive: 0.

In the case of `CC(=O)N[C@@H](CS)C(=O)O`, the “dopaminergic neuron differentiation score” value is inactive: 0.

With `CC(C)[C@@H]1CC[C@@H](C)C[C@H]1O`, the “dopaminergic neuron differentiation score” value was inactive: 0.

In the case of `CC(=O)N(CC(O)CN(C(C)=O)c1c(I)c(C(=O)NCC(O)CO)c(I)c(C(=O)NCC(O)CO)c1I)c1c(I)c(C(=O)NCC(O)CO)c(I)c(C(=O)NCC(O)CO)c1I` (stereo not drawn), the “dopaminergic neuron differentiation score” value is inactive: 0.

For `Oc1c(Cl)cc(Cl)cc1Sc1cc(Cl)cc(Cl)c1O`, the “dopaminergic neuron differentiation score” value was inactive: 0.

As for `Cc1ccc(C)c(OCCCC(C)(C)C(=O)O)c1`, the “dopaminergic neuron differentiation score” value was inactive: 0.

Turning to `CC(C)=CC1C(CO)C1(C)C` (stereo not drawn), the “dopaminergic neuron differentiation score” value was inactive: 0.

On to `Clc1ccccc1C(c1ccccc1)(c1ccccc1)n1ccnc1`, for which the “dopaminergic neuron differentiation score” value is inactive: 0.

As to `CCc1cc(Cl)c(OC)c(C(=O)NC[C@@H]2CCCN2CC)c1O`, the “dopaminergic neuron differentiation score” value was inactive: 0.

For the compound `CC(C(=O)O)c1ccc(N2Cc3ccccc3C2=O)cc1` (stereo not drawn), the “dopaminergic neuron differentiation score” value was inactive: 0.

As for `CC(C)c1ccc2c(c1)CCC1[C@](C)(CN)CCC[C@]21C` (stereo partly drawn), the “dopaminergic neuron differentiation score” value is inactive: 0.

On to `COCCCOc1ccnc(C[S+]([O-])c2nc3ccccc3[nH]2)c1C` (stereo not drawn), for which the “dopaminergic neuron differentiation score” value is inactive: 0.

Consider `CN(C)[C@@H]1C(O)=C(C(N)=O)C(=O)[C@@]2(O)C(O)=C3C(=O)c4c(O)ccc(Cl)c4[C@@H](O)[C@H]3C[C@@H]12`, for which the “dopaminergic neuron differentiation score” value was inactive: 0.

Regarding `C[C@@H]1CC2C3C[C@H](F)C4=CC(=O)C=C[C@]4(C)[C@@]3(F)[C@@H](O)C[C@]2(C)[C@@]1(O)C(=O)COC(=O)C(C)(C)C` (stereo partly drawn), the “dopaminergic neuron differentiation score” value is inactive: 1.

With `CNC[C@H](O)[C@@H](O)[C@H](O)[C@H](O)CO`, the “dopaminergic neuron differentiation score” value is inactive: 0.

On to `O=C(O)CCCc1ccccc1`, for which the “dopaminergic neuron differentiation score” value was inactive: 0.

With `Cc1ccc(S(=O)(=O)NC(=O)NN2CCCCCC2)cc1`, the “dopaminergic neuron differentiation score” value is inactive: 0.

For the compound `CC(C)CCCC(C)C1CCC2C3CCC4CC(O)CCC4(C)C3CCC12C` (stereo not drawn) [5alpha-CHOLESTANOL], the “dopaminergic neuron differentiation score” value is active: 3.

As to `CCOc1nc2cccc(C(=O)OC(C)OC(=O)OC3CCCCC3)c2n1Cc1ccc(-c2ccccc2-c2nn[nH]n2)cc1` (stereo not drawn), the “dopaminergic neuron differentiation score” value is inactive: 0.

As for `C/C=N/N(C)C=O`, the “dopaminergic neuron differentiation score” value was inactive: 0.

Consider `O=c1[nH]c(=O)n([C@H]2C[C@H](O)[C@@H](CO)O2)cc1C(F)(F)F`, for which the “dopaminergic neuron differentiation score” value is inactive: 0.

`Cc1c(NC(=O)c2cccnc2)c(=O)n(-c2ccccc2)n1C`: the “dopaminergic neuron differentiation score” value is inactive: 0.

As to `CN(C)CC(c1ccc(O)cc1)C1(O)CCCCC1` (stereo not drawn), the “dopaminergic neuron differentiation score” value is inactive: 0.

Take `NC(=O)CC[C@H](N)C(=O)O`: the “dopaminergic neuron differentiation score” value is inactive: 0.

Source of the values: the supplement of paper PMC4635364.
